Measurements reported in PubChem BioAssay AID686938 (Drosophila RNAi Screening Center, 2013).
The deposit covers about 23,000 reagents; below is an unselected part of those with a known target gene and a result. Over the whole deposit, 75 (0.33%) got an active call. 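Raw plate signals without normalisation; calls rest on plate z-scores that were not deposited; ratio present for only 364 wells.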 The numbers tell different reagents against one gene apart. A plus sign joins genes that one reagent is predicted to hit. No sequences are given here. Not stated in the record: the dose of the treatment.

- Purpose: 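Fly genes required for calcium entry once internal stores are emptied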 (primary screen)
- System: Drosophila S2R+ cells
- Reagents: long dsRNA against Drosophila genes, about 0.25 µg dsRNA per well, roughly 10,000 cells
- Time to read-out: 5 days of knock-down before the calcium assay
- Conditions: thapsigargin (SERCA pump blocker) to empty calcium stores; entry signal taken 4 min after adding it
- Detection: 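Duplicate raw fluo-4 intensities per well from a plate reader, at rest and four minutes after thapsigargin emptied calcium stores; entry-to-rest ratio filled for only some wells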
- Scale: calcium entry signal: higher = stronger calcium signal after store depletion; resting calcium signal: higher = higher resting calcium signal
- Hit rule: 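Hit if the duplicate-averaged plate z-score for entry over resting signal is under −3; wells with weak total dye signal (Fmax z < −2) or more than 5 off-targets removed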
- Meaning of the calls: active = strongly reduced calcium entry; inactive = no strong reduction

| gene | dsRNA no. | calcium entry signal, replicate 1 (fluorescence units) | calcium entry signal, replicate 2 (fluorescence units) | resting calcium signal, replicate 1 (fluorescence units) | resting calcium signal, replicate 2 (fluorescence units) | outcome |
| --- | --- | --- | --- | --- | --- | --- |
| CG15475 | 1 | 4.78e7 | 4.77e7 | 2.09e7 | 2.00e7 | inactive |
| ais (aramis) | 1 | 3.61e7 | 4.17e7 | 1.77e7 | 3.12e7 | inactive |
| CG14000 + bchs | 1 | 3.75e7 | 3.25e7 | 1.92e7 | 1.62e7 | inactive |
| CG43095 | 1 | 5.00e7 | 3.13e7 | 2.22e7 | 1.67e7 | inactive |
| crm (cramped) | 1 | 3.33e7 | 3.83e7 | 1.56e7 | 1.88e7 | inactive |
| mRpL20 (mitochondrial ribosomal protein L20) | 1 | 3.74e7 | 4.81e7 | 1.85e7 | 1.91e7 | inactive |
| CG34266 | 1 | 2.57e7 | 3.54e7 | 1.27e7 | 1.48e7 | inactive |
| CG15657 | 1 | 3.56e7 | 4.01e7 | 1.95e7 | 1.77e7 | inactive |
| CanB (Calcineurin B) | 1 | 2.67e7 | 3.17e7 | 1.33e7 | 1.45e7 | inactive |
| PAN3 (Poly(A) specific ribonuclease subunit PAN3) | 1 | 3.54e7 | 2.77e7 | 2.54e7 | 1.19e7 | inactive |
| VGAT (Vesicular GABA Transporter) | 1 | 4.29e7 | 3.43e7 | 2.30e7 | 1.52e7 | inactive |
| CG16888 | 1 | 4.26e7 | 2.49e7 | 1.90e7 | 1.22e7 | inactive |
| GstD7 (Glutathione S transferase D7) | 1 | 2.75e7 | 2.00e7 | 1.39e7 | 1.02e7 | inactive |
| CG13723 | 1 | 2.59e7 | 5.56e7 | 1.38e7 | 2.12e7 | inactive |
| aru (arouser) | 1 | 2.60e7 | 3.03e7 | 1.27e7 | 1.42e7 | inactive |
| aru (arouser) | 2 | 2.78e7 | 7.38e7 | 1.29e7 | 3.12e7 | inactive |
| Hacd2 (3-hydroxyacyl-CoA dehydratase 2) | 1 | 3.32e7 | 2.24e7 | 1.43e7 | 1.04e7 | inactive |
| CG5639 | 1 | 1.83e7 | 3.17e7 | 9.78e6 | 1.37e7 | inactive |
| Rab40 | 1 | 4.92e7 | 4.76e7 | 2.22e7 | 2.41e7 | inactive |
| APC10 (Anaphase Promoting Complex subunit 10) | 1 | 4.19e7 | 4.31e7 | 2.34e7 | 2.45e7 | inactive |
| CG4586 | 1 | 4.29e7 | 4.52e7 | 2.00e7 | 2.08e7 | inactive |
| CG6607 | 1 | 3.50e7 | 4.34e7 | 1.98e7 | 2.00e7 | inactive |
| CG11437 | 1 | 3.01e7 | 5.58e7 | 1.44e7 | 2.40e7 | inactive |
| sut4 (sugar transporter 4) | 1 | 3.68e7 | 3.12e7 | 1.66e7 | 1.53e7 | inactive |
| pll (pelle) | 1 | 3.29e7 | 3.51e7 | 1.57e7 | 1.73e7 | inactive |

Reprinted from the listing, 7 entries:
| gene | dsRNA no. | calcium entry signal, replicate 1 (fluorescence units) | calcium entry signal, replicate 2 (fluorescence units) | resting calcium signal, replicate 1 (fluorescence units) | resting calcium signal, replicate 2 (fluorescence units) | outcome |
| --- | --- | --- | --- | --- | --- | --- |
| mRpL20 (mitochondrial ribosomal protein L20) | 1 | 3.74e7 | 4.81e7 | 1.85e7 | 1.91e7 | inactive |
| CG34266 | 1 | 2.57e7 | 3.54e7 | 1.27e7 | 1.48e7 | inactive |
| CG15657 | 1 | 3.56e7 | 4.01e7 | 1.95e7 | 1.77e7 | inactive |
| CanB (Calcineurin B) | 1 | 2.67e7 | 3.17e7 | 1.33e7 | 1.45e7 | inactive |
| PAN3 (Poly(A) specific ribonuclease subunit PAN3) | 1 | 3.54e7 | 2.77e7 | 2.54e7 | 1.19e7 | inactive |
| VGAT (Vesicular GABA Transporter) | 1 | 4.29e7 | 3.43e7 | 2.30e7 | 1.52e7 | inactive |
| CG16888 | 1 | 4.26e7 | 2.49e7 | 1.90e7 | 1.22e7 | inactive |

Next results:
| gene | dsRNA no. | calcium entry signal, replicate 1 (fluorescence units) | calcium entry signal, replicate 2 (fluorescence units) | resting calcium signal, replicate 1 (fluorescence units) | resting calcium signal, replicate 2 (fluorescence units) | outcome |
| --- | --- | --- | --- | --- | --- | --- |
| Acbp1 (Acyl-CoA binding protein 1) | 1 | 3.01e7 | 4.91e7 | 1.49e7 | 2.00e7 | inactive |
| Zn72D (Zinc-finger protein at 72D) | 1 | 3.25e7 | 3.91e7 | 1.61e7 | 3.11e7 | inactive |
| CG7295 | 1 | 2.99e7 | 3.02e7 | 1.39e7 | 1.39e7 | inactive |
| Rint1 (RAD50 interactor 1) | 1 | 4.44e7 | 3.49e7 | 3.28e7 | 1.68e7 | inactive |
| CG9855 | 1 | 4.22e7 | 5.76e7 | 1.99e7 | 2.73e7 | inactive |
| RpL18 (Ribosomal protein L18) | 1 | 9.13e6 | 1.85e7 | 7.35e6 | 1.16e7 | inactive |
| RpL18 (Ribosomal protein L18) | 2 | 1.29e7 | 1.95e7 | 9.58e6 | 1.34e7 | inactive |
| CG34029 | 1 | 2.59e7 | 4.35e7 | 1.22e7 | 1.83e7 | inactive |
| BobA | 1 | 5.09e7 | 6.76e7 | 2.37e7 | 2.66e7 | inactive |
| sra (sarah) | 1 | 2.70e7 | 2.35e7 | 1.23e7 | 1.04e7 | inactive |
| sona (sol narae) | 1 | 3.86e7 | 4.91e7 | 1.83e7 | 2.26e7 | inactive |
| sona (sol narae) | 2 | 4.13e7 | 4.76e7 | 2.07e7 | 2.27e7 | inactive |
| sona (sol narae) | 3 | 3.94e7 | 4.48e7 | 2.07e7 | 2.15e7 | inactive |
| CG32100 | 1 | 3.39e7 | 4.62e7 | 1.83e7 | 2.14e7 | inactive |
| CG32100 | 2 | 3.32e7 | 4.74e7 | 1.80e7 | 2.18e7 | inactive |
